Measurements as given in the supplement of paper PMC5949888.
Most values lie at the floor of the assay. Slopes are relative: functional sequences can read slightly below zero.

Test system: Saccharomyces cerevisiae PS128 hsf1 delta, HSF1(1-493) fusion
Assay: growth estimate (transactivation domain function in HSF1 fusion, heat-shock survival) (a.u. (slope of normalised read count over time)); higher = stronger growth at 37°C, i.e. more transactivation activity
Conditions: library: random library

Substance | growth estimate
TKDRCA | < -0.25
TKESRSAISVVKNIIFLLQG | < -0.25
TKKVGRRKCKSLPVARRSLI | < -0.25
TKLTPLEGRWPIFKMFQPFP | < -0.25
TKNRPSA | < -0.25
TKPGSRPDKRPPRSTCAFFA | < -0.25
TKQYKMIVPTRILTASALIG | < -0.25
TKRETQANGMFQSWETEART | < -0.25
TKRNGKKSGKLYTWAAIR | -0.246
TLALSLPSEPGTSDLVVGTS | < -0.25
TLAPFTKII | < -0.25
TLAPPPGSKLEFLPQTLDVP | < -0.25
TLATETLR | < -0.25
TLCDMLVRGRCSGGSLQLIV | -0.243
TLCQLPMNSVWVDPARNSLV | < -0.25
TLELMHVNSRQNVWSLGQLT | < -0.25
TLESKAYKASRLEYNTESGK | < -0.25
TLFLAKIAARPSA | < -0.25
TLGPVYYGRTVYTVVHFR | < -0.25
TLGR | < -0.25
TLGRASVLMCWRCAIGLTEP | < -0.25
TLHMFVITRAKRARSASKPM | < -0.25
TLHRGCTIMSRGY | < -0.25
TLHTG | < -0.25
TLHWVSRVAALKRE | < -0.25

Random excerpt: 2 entries already listed.
Substance | growth estimate
TLGPVYYGRTVYTVVHFR | < -0.25
TLALSLPSEPGTSDLVVGTS | < -0.25

Additional entries

Substance | growth estimate
TLILPILCSRE | < -0.25
TLITLVGMVALYQLETPAYT | < -0.25
TLIVGQRGKGPALQYYVGRQ | < -0.25
TLKGRSVIRTLWAVGVWHVK | < -0.25
TLKKSG | < -0.25
TLKLE | < -0.25
TLLEEPITRVLDALEKPTGT | < -0.25
TLLGFHRERRGVVPKQSRKP | < -0.25
TLLIRGRGS | < -0.25
TLMYRL | < -0.25
TLNGFCTVWVLMCVSLPELH | < -0.25
TLNGLSLSDDIYFTSI | 0.408
TLNPLATGFSFQ | < -0.25
TLNPRSRRPSIGIAFKNGVL | < -0.25
TLPFIRSRDIRHTSSSGVAR | < -0.25
TLPQKRFRSAAGSTRENFAL | < -0.25
TLQGVGCGAGPVREAFAWRK | < -0.25
TLRGQLS | < -0.25
TLRHLRHGMYQTWADTHRTS | < -0.25
TLRLYRTKGGSGCALITGSC | < -0.25
TLRQISDKLWQHNALEGPPS | < -0.25
TLRRTGRFTGPGYILPKGET | < -0.25
TLRS | < -0.25
TLRVGVLILG | < -0.25
TLSAERTRDTDCSLVDRYAA | < -0.25

Substance | growth estimate
TLSEVKVVHRTDKR | -0.246
TLSNVCLLYCLFGPVIHITH | < -0.25
TLSRH | < -0.25
TLSVRLTHSIRN | < -0.25
TLTEHATSKEQHAVRLEWSS | < -0.25
TLTQHPLFV | < -0.25
TLVMQPIVGIIHL | < -0.25
TLWVPRSSKDEHWQRIQNIC | < -0.25
TLYRTTE | < -0.25
TLYSLWYKTRFGLVGTK | < -0.25
TMEWSSPVK | < -0.25
TMGYLIQNAPRLTKWLR | < -0.25
TMISIVDVKESIYY | < -0.25
TMKCGLRRGMRRQHVRNRTR | < -0.25
TMPSCWRNCRCSGLR | < -0.25
TMQPGQRRGFVRGVGAA | < -0.25
TMRDI | < -0.25
TMSHGLIRCMDYFARVVLLR | -0.246
TMTALHNGTCMWCPDGMTVT | < -0.25
TMVRGHEQQSCW | < -0.25
TMVRT | < -0.25
TMWRSRPTRVSIARGSNDS | < -0.25
TNFGRPMSE | < -0.25
TNGSPLRRISQCRRIKS | < -0.25
TNHTSRRPVNSFAGAQRTRI | < -0.25

Substance | growth estimate
TNRFIATSGSVRAPMAGPGV | < -0.25
TNRTVRFTRQWRANTNSYRD | < -0.25
TNSPRNRTVDTENVRTQVLW | < -0.25
TNTYKELLDRVSRTTCRVSL | < -0.25
TNVPGSLVYLQEVSLYAMNQ | < -0.25
TPAERMNRTAQRPNKDSSPL | -0.222
TPAGPTNWESMLTAGARWSP | < -0.25
TPAGSSPPRFCLLIP | < -0.25
TPAN | < -0.25
TPARTGLQVASSLVQR | < -0.25
TPGVQVPGPEFW | < -0.25
TPGWRLRLMR | < -0.25
TPHGHGYGCGIWIPYVSGWA | -0.237
TPHGRCRR | < -0.25
TPMSVALSYGGY | < -0.25
TPNGSVRGILAPEWEAPTQL | < -0.25
TPPIHPARLC | < -0.25
TPQGQWLTSGF | < -0.25
TPQLARYSWQNGVKRGLSAD | < -0.25
TPRGDVCRYRQYFALG | < -0.25
TPRKADPREVQPIQINQPNT | < -0.25
TPRTLVKAVRYA | < -0.25
TPSLVR | < -0.25
TPSNSPVHRASLRCCIHLGN | < -0.25
TPSSRTSQNCRLDRKNIYPP | < -0.25

Substance | growth estimate
TPTILLPF | -0.248
TPTVLGDLRRGSNAVSLVRS | < -0.25
TPVEPVNMTERVVRNAERGP | < -0.25
TPWGFSEETKRSGPVLKAGE | < -0.25
TPWNCIRRTPRSCDQRLGFG | < -0.25
TQCPPGSGDHIDHSPTLVRA | < -0.25
TQDEPS | < -0.25
TQF | < -0.25
TQIVLRLEPNHRRAACAVTG | < -0.25
TQIVQLSFE | < -0.25
TQLLYYDLWIFVL | < -0.25
TQLQRCLATYLITGISESSL | < -0.25
TQLRRDKR | < -0.25
TQLYL | < -0.25
TQMLSTGNTWFFAGQNSIAV | < -0.25
TQQRHFGLSSTESTTFTLRV | < -0.25
TQRERLRLVVL | < -0.25
TQSRGVGPPHHRLV | -0.234
TQTIDLGAL | < -0.25
TQTLFERRASYHGIY | < -0.25
TQVHAELYWVPIE | < -0.25
TQVLLTGWSGPARFGNRYLQ | < -0.25
TQVPRQGNCYNREAGYRNLR | < -0.25
TRACFS | < -0.25
TRAQNRGAAILTRGSWLEKA | < -0.25

Substance | growth estimate
TRAVICPPYFHGGSRRTQVF | < -0.25
TRCAIDVNAAVGRRHS | < -0.25
TRCCLEFLYTW | < -0.25
TRCFYSLCINTSTANLSYFT | < -0.25
TRDAV | < -0.25
TRDG | < -0.25
TRDHRESRVLRYTKTLEARR | < -0.25
TREISGAGRGMELVIMQAHR | < -0.25
TRELGRLRAG | < -0.25
TREPR | < -0.25
TRFVPTR | < -0.25
TRG | < -0.25
TRGCFRSDGQRQAGGGTLRV | < -0.25
TRGDIGSQG | < -0.25
TRGGSIDSH | < -0.25
TRGIR | < -0.25
TRGLGLRGHIKEGPRWKVTS | < -0.25
TRGVAMPQNHSDTGRLSTRQ | -0.246
TRGVVGNLCQR | < -0.25
TRILGKCVKCHRG | -0.243
TRIMFDSGDYLIPVKPYAQR | < -0.25
TRIR | < -0.25
TRIRR | -0.246
TRKASGRSNLW | < -0.25
TRKSTPRRVINYGDLGGRLR | < -0.25

A run of entries taken from the entries so far, for reference:
Substance | growth estimate
TQIVQLSFE | < -0.25
TQLLYYDLWIFVL | < -0.25
TQLQRCLATYLITGISESSL | < -0.25
TQLRRDKR | < -0.25
TQLYL | < -0.25

(cont.)

Substance | growth estimate
TRKVDEKDV | < -0.25
TRKVKQGVTRII | < -0.25
TRLDTGSPHDNRKT | < -0.25
TRLRVRPFVSA | < -0.25
TRLVNVYQ | < -0.25
TRMATSSPIVLRAPNIIGNA | < -0.25
TRMKRGGGRTITRYRLP | < -0.25
TRMREAAGHFPTDSLIVVTP | < -0.25
TRNLGRSTQWIVEAGNLVA | < -0.25
TRNQRG | < -0.25
TRQTRVRRRGTVLGLSSTAD | < -0.25
TRRGGGNRALNTQGGLLRRV | < -0.25
TRRMGVLENLGTWPGRLESF | < -0.25
TRRWVGVDNTASRK | < -0.25
TRSIGLTRLRDCWVQHALRA | < -0.25
TRSRMVLTFGEVDVVDLTNG | < -0.25
TRSTFQLFYPALPELRCC | < -0.25
TRTD | < -0.25
TRTL | < -0.25
TRVHCNTGRINNISIKARML | < -0.25
TRVLPADDKFERSGGASSMR | < -0.25
TRVRCRSKGCLRPLLNRDGG | < -0.25
TRVSKI | < -0.25
TRVVRDWDVQCTVIPRTELL | < -0.25
TRWGRRLDERSGSRMEGIQT | < -0.25

Substance | growth estimate
TRWTRGIAGRNLTLVL | < -0.25
TRYCAAKR | < -0.25
TRYGTLVVYEVKLGWEAIGV | < -0.25
TRYI | < -0.25
TRYRLVFTRSRVNHVS | < -0.25
TRYWVPVKLKEKR | < -0.25
TSADGTTRTDSKGNSSFCSR | < -0.25
TSAGFGPWSDLWRRQRVRFE | < -0.25
TSAISFLFGRATSSDAIQAA | < -0.25
TSASR | -0.189
TSAW | -0.215
TSCCGSNTDGKLVSRTRKRH | < -0.25
TSCCRLDSQASMGRGGPNRG | < -0.25
TSCYRGCGGVFRRLLNVLGQ | < -0.25
TSDCSVHEGSPY | < -0.25
TSDTAALMSAHFELCP | < -0.25
TSEGFHAFVHCRNARTENAD | < -0.25
TSEIRWMNGELAGKVSSITS | < -0.25
TSEPQRLTILRKLRLCGGHE | < -0.25
TSETGLM | < -0.25
TSF | < -0.25
TSGGPGAW | < -0.25
TSGGSCCVARWLLPDQNDLY | < -0.25
